The experiment is described as follows: qHTS Assay for Lipid Storage Modulators in Drosophila S3 Cells.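 For cell number change: cells counted by Cell Tracker Red CMTPX staining in the red channel.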 Particulars: BODIPY lipid droplet fluorescence, 18-24 h; for cell number change: measured here: cell count max response, cells fed with added oleic acid. In a few lines: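 Drosophila S3 cells loaded with oleic acid (400 uM, as added) and compounds at several concentrations; lipid droplets imaged by 488-nm laser-scanning cytometry, 500–530 nm intensity and object ratio to cell channel. Percent activity normalized to 20 uM Triacsin C.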
(In general: Quantitative high-throughput screening tests each substance at several concentrations.)

Where [1] appears, read: measured here: cell number channel AC50, cells fed with added oleic acid.
Setting [2] is: measured here: lipid fluorescence (Fed channel) AC50, cells fed with added oleic acid.

SMILES strings stand for the structures. Some of the results follow. These are further read-outs of the screen, such as a control signal, another cell line or another target. No call is given for them. Most of these compounds were active or inconclusive in the main read-out, so they are no random draw. Words in brackets tell the shape of the fitted curve; partial curves, single points and poor fits give uncertain potencies.

In general, AC50 refers to the concentration at which the activity in the assay is half-maximal. Lower therefore signals activity at low concentration. For the molecule `O=S(=O)(/N=C(/Nc1ccccc1)c1ccccc1O)c1ccccc1`, the cell number change turned out to be 30.5%. Moreover, under setting [1], the AC50 is 16.4 µM [rising, single point].
In the case of `CC[C@@H](C)[C@@H](C(=O)N1CCN(C(=O)OC(C)(C)C)CC1)n1cc(CCCCNC(=O)OC(C)(C)C)nn1`, the cell number change was -37.5%. Moreover, the AC50 under setting [1] is 8.2 µM [falling, partial curve, poor fit]. Also, the AC50 under setting [2] was 20.6 µM [falling, partial curve].
Turning to `CSc1nc(-c2ccco2)nn1C(=O)c1ccccc1`, the cell number change was -5.03%.
In the case of `Cc1ccc(C23CC4CC(CC(C(=O)NC(C(=O)O)C(C)C)(C4)C2)C3)cc1` (stereo not drawn), the cell number change was -10.1%. In addition, the AC50 under setting [2] was 2.31 µM [falling, single point].
As to `N#C/C(=N\Nc1c(Cl)cccc1Cl)C(=O)NN`, the cell number change came to 7.2%.
For the molecule `CC1(C)C(C=C(Cl)Cl)C1C(=O)Nc1ccc([N+](=O)[O-])cc1` (stereo not drawn), the cell number change is -33.3%. For the same molecule, under setting [1], the concentration at half-maximal activity (AC50) is 32.6 µM [falling, single point]. Moreover, the concentration at half-maximal activity (AC50) under setting [2] is 29.1 µM [falling, partial curve, poor fit].
In the case of `COc1cccc(NC(=O)CN(C)C(=O)c2ccc3c(c2)S(=O)(=O)N=C2CCCCCN23)c1`, the cell number change amounted to 16.6%. Also, the half-maximal activity concentration (AC50) under setting [2] is 0.651 µM [falling, full curve, poor fit].
For `O=C(COc1cc(Cl)c(Cl)cc1Cl)NC(=O)NC1CCCC1`, the cell number change is -40.3%. Also, under setting [1], the concentration at half-maximal activity (AC50) is 29.1 µM [falling, single point].
For the molecule `CCOc1ccc(N(CC(=O)NC2CCC(C)CC2)S(=O)(=O)c2c(C)noc2C)cc1` (stereo not drawn), the cell number change was -22.4%. Moreover, under setting [2], the concentration at half-maximal activity (AC50) is 0.58 µM [falling, single point].
Regarding `Cc1c(C(=O)OCc2ccccc2)[nH]c2c1C(=O)CC(c1ccco1)C2` (stereo not drawn), the cell number change is -36.5%. Also, under setting [2], the half-maximal activity concentration (AC50) was 0.461 µM [rising, full curve, poor fit].
On to `Cc1ccc(NC(=O)c2cc(S(=O)(=O)N3CCOCC3)cs2)cc1`, for which the cell number change amounted to 18.3%.
Take `Cc1ccc(C(=O)N/C(=C\c2ccco2)C(=O)NCCN2CCCCC2)cc1C`: the cell number change is -12.8%.
Consider `CCOCCOC(=O)Cn1cnc2scc(-c3ccc(C)cc3)c2c1=O`, for which the cell number change was -16.2%. The half-maximal activity concentration (AC50) under setting [2] is 6.51 µM [rising, single point].
In the case of `Cc1cc(C)nc(SCc2ccc(C(=O)N/N=C/C3CCCCC3)cc2)n1`, the cell number change turned out to be 32.4%. Further, the half-maximal activity concentration (AC50) under setting [1] was 1.46 µM [rising, full curve]. Besides, the half-maximal activity concentration (AC50) under setting [2] is 2.31 µM [rising, full curve].
For `CC(C)n1cc(/C=N/NC(=O)COc2cccc3cccnc23)c2ccccc21`, the cell number change is -58.7%. Moreover, the AC50 under setting [1] is 18.4 µM [falling, single point]. Further, the AC50 under setting [2] is 29.1 µM [falling, single point].
For the molecule `NC(=O)CC(NC(=O)Cc1ccc(Cl)cc1)c1ccc(NC2CC3CCC2C3)c([N+](=O)[O-])c1` (stereo not drawn), the cell number change was -41.9%. Further, the AC50 under setting [1] was 25.9 µM [falling, single point]. The half-maximal activity concentration (AC50) under setting [2] is 1.64 µM [falling, partial curve, poor fit].
As for `COc1cc(C(C)=O)ccc1OCC(=O)Nc1ccccc1N1CCCCC1`, the cell number change turned out to be 16.6%. The AC50 under setting [1] was 4.11 µM [rising, single point].
Turning to `O=C(CSC(=S)N1CCOCC1)Nc1ncc2c(n1)CC(c1ccco1)CC2=O` (stereo not drawn), the cell number change is 33.6%. Moreover, the concentration at half-maximal activity (AC50) under setting [1] is 0.651 µM [rising, full curve, poor fit]. For the same molecule, the AC50 under setting [2] was 25.9 µM [rising, partial curve].
Take `Cc1cc(C(=O)Nc2ccc(N3CCOCC3)c3nonc23)ccc1[N+](=O)[O-]`: the cell number change was determined as 49.1%. Further, the AC50 under setting [1] is 25.9 µM [rising, single point]. Also, under setting [2], the AC50 was 0.58 µM [falling, single point].
As for `CC1=C(C(=O)N2CCCC(N3CCN(c4cccc(Cl)c4)CC3)C2)OCCO1` (stereo not drawn), the cell number change is 18.5%. In addition, the AC50 under setting [2] is 18.4 µM [rising, partial curve, poor fit].
For the molecule `c1ccc(NCc2cccc3ccccc23)nc1`, the cell number change is -4.12%. The half-maximal activity concentration (AC50) under setting [2] was 0.517 µM [rising, partial curve, poor fit].
Turning to `CC1=C/C(=N\NC(=S)NCCc2ccccc2)CC(C)(C)C1`, the cell number change worked out at 36.1%.
As to `CCN(CC)S(=O)(=O)c1cccc(NC(=O)c2cc(-c3cccs3)nn2-c2ccccc2)c1`, the AC50 under setting [2] is 0.058 µM [falling, full curve, poor fit].
For the molecule `CCc1c(C)nc(N2CCN(c3ccc(Cl)cc3)CC2)[nH]c1=O`, the cell number change was found to be 18.2%.
On to `O=C(CNC(=O)C12CC3CC(CC(C3)C1)C2)N1CCN(S(=O)(=O)c2cccs2)CC1`, for which the cell number change was -66.7%. Under setting [1], the AC50 was 29.1 µM [falling, single point].
As to `Cc1cc(C)n(CC(=O)N/N=C/c2ccc(C)o2)n1`, the cell number change is -3.17%. The AC50 under setting [2] was 0.13 µM [falling, full curve, poor fit].
Take `Cc1nn(-c2ccccc2)c(C)c1C(=O)OCC(=O)NC12CC3CC(CC(C3)C1)C2`: the cell number change was -36.4%. Besides, under setting [1], the AC50 was 29.1 µM [falling, single point]. Under setting [2], the half-maximal activity concentration (AC50) was 29.1 µM [falling, single point].
Turning to `CC(=O)c1cc(CN2CCN(C3CCN(C(C)C)CC3)C(CCO)C2)cs1` (stereo not drawn), the cell number change is -20.4%. Under setting [2], the AC50 is 29.1 µM [falling, single point].
Regarding `CC(Oc1ccc(C(C)(C)C)cc1)c1ccnc2nc(/N=C/N(C)C)nn12` (stereo not drawn), the cell number change was -38.4%. Further, under setting [1], the concentration at half-maximal activity (AC50) is 0.206 µM [falling, full curve, poor fit].
For the molecule `CN(C)C(=O)c1c([N+](=O)[O-])ncn1C`, the cell number change is -0.874%. Also, the half-maximal activity concentration (AC50) under setting [2] was 25.9 µM [falling, partial curve, poor fit].
For `CCOC(=O)N1CCN(c2c(N3CC=C(c4ccccc4)CC3)c(=O)c2=O)CC1`, the cell number change was 15.3%. Moreover, the AC50 under setting [2] is 16.4 µM [rising, partial curve].
With `CC1=CC(C)(C)Nc2ccc(OC(=O)C(C)N3C(=O)c4ccccc4C3=O)cc21` (stereo not drawn), under setting [2], the AC50 is 6.51 µM [rising, single point].
Regarding `Cc1cc(=O)oc2c(C)c(OCC(=O)N3CCN(c4cccc(Cl)c4)CC3)ccc12`, the cell number change stood at 15.3%. Also, the concentration at half-maximal activity (AC50) under setting [2] is 6.51 µM [rising, single point].
Consider `COc1ccc(C(CNC(=O)c2oc3ccc(F)cc3c2C)N2CCCCC2)cc1` (stereo not drawn), for which the cell number change is -0.895%. The AC50 under setting [2] was 0.00651 µM [rising, full curve, poor fit].
As to `CCCC(=O)Nc1ccc(Cl)c(NC(=O)C(C)(C)C)c1`, the cell number change stood at 0.119%. Also, the AC50 under setting [2] is 6.51 µM [rising, single point].
Take `O=C(c1ccco1)N1CCN(CCOc2ccccc2)CC1`: the cell number change was -25.4%. For the same molecule, the concentration at half-maximal activity (AC50) under setting [1] was 2.91 µM [falling, full curve, poor fit]. In addition, under setting [2], the half-maximal activity concentration (AC50) was 1.64 µM [falling, full curve, poor fit].

Values taken from PubChem BioAssay AID2685 (National Center for Advancing Translational Sciences (NCATS), 2010).
